These are yes or no findings as the source states them, for the method shown. Where a sequence is shown, tags or fusion partners need not be part of it.
Target: T1, CTN-1/α-catulin tagged with the GAL4 DNA-binding domain (C. elegans) (UniProt G8JYB2)
T1 sequence: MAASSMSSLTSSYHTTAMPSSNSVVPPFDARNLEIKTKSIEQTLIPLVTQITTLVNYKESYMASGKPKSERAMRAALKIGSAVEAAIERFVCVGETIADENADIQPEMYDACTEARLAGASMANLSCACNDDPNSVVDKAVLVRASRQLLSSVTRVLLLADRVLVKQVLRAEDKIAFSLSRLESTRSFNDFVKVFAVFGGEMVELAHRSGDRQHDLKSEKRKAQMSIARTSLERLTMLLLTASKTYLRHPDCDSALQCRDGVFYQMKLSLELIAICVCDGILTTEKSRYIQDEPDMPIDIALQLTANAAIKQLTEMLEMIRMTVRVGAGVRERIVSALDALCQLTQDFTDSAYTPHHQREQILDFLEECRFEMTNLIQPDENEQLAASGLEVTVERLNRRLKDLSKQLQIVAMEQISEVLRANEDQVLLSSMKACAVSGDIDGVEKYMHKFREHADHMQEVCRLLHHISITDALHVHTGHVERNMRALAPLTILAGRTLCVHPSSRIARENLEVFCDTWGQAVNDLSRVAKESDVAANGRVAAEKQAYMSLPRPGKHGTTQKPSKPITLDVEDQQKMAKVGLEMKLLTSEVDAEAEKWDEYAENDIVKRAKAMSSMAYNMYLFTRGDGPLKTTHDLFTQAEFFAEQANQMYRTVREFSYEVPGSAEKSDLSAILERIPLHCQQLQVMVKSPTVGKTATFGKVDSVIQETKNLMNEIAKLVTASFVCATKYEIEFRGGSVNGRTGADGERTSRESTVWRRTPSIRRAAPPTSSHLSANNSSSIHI
Assay: two-hybrid; Matchmaker GAL4-based system (Clontech); ctn-1 fragments on the GAL4 DNA-binding domain (pGBKT7, strain Y187), slo-1 cDNA fragments on the GAL4 activation domain (pGADT7, strain Y2H Gold); mating, selection of diploids on quadruple dropout plates with 40 μg/ml X-α-Gal

binding	Substance
no binding	SLO-1 RCK1 domain alone fused to the GAL4 activation domain (C. elegans) (domain or fragment)
no binding	SLO-1 RCK2 domain alone fused to the GAL4 activation domain (C. elegans) (domain or fragment)

From article PMC4411755
